{"source": "paper PMC5903241", "about": "(British Journal of Clinical Pharmacology, 2018)", "key": {"clinical": {"experiment": "clinical", "conditions": "human, plasma, oral, 40 mg"}, "[1]": {"conditions": "coadministered with sacubitril/valsartan vs furosemide alone"}}, "data": [{"smiles": "NS(=O)(=O)c1cc(C(=O)O)c(NCc2ccco2)cc1Cl", "note": "[Furosemide, furosemide]", "values": [{"measurement": "AUC(0-t)", "setting": "clinical", "value": 2460, "unit": "ng·h/mL"}, {"measurement": "AUClast, geometric least squares mean", "setting": "furosemide 40 mg single dose + sacubitril/valsartan 200 mg twice daily", "value": 1707.22, "unit": "h*ng ml^–1"}, {"measurement": "Tmax", "setting": "furosemide 40 mg single dose + sacubitril/valsartan 200 mg twice daily, median [minimum–maximum]", "value": "2.00 [0.50–4.20] h"}, {"measurement": "AUCinf, geometric least squares mean", "setting": "furosemide 40 mg single dose alone, n = 25", "value": "2552.95 (n = 25) h*ng ml^–1"}, {"measurement": "decrease of AUClast when coadministered with sacubitril/valsartan", "setting": "vs furosemide alone", "value": 31, "unit": "%"}, {"measurement": "decrease of Cmax when coadministered with sacubitril/valsartan", "setting": "vs furosemide alone", "value": 50, "unit": "%"}, {"measurement": "decrease of urinary excretion of furosemide (Ae0–24)", "setting": "[1]", "value": 26, "unit": "%"}]}]}
